Measurements from article PMC6896172, “Successful Targeting of the Warburg Effect in Prostate Cancer by Glucose-Conjugated 1,4-Naphthoquinones” (Cancers, 2019).
The source gives many values for each of these; only a part stands here.

Tested on: 22Rv1 cells
Assay: Global proteome analysis (LC-MS/MS, DIA) of differentially expressed proteins
Format: cell-based, human
Protocol: 22Rv1 cells were seeded in T75 culture bottles (4 × 10^6 cells/bottle in 20 mL/bottle), treated for 48 h with the 5 µM of compound 11 or vehicle (DMSO), harvested by scratching, washed twice with ice-cold PBS and flash-frozen. Cells were lysed and sonicated. The protein extracts were then heat-denaturated, reduced, alkylated and digested by trypsin. Peptides were chromatographically separated using full recovery autosampler vials and a nano-UPLC system (Acquity, Waters Corporation, Milford, MS, USA), coupled via electrospray ionization (ESI) to a tandem mass spectrometer equipped with a quadrupole and an orbitrap (QExactive, Thermo Fisher Scientific, Bremen, Germany), using MS/MS mode in data dependent acquisition (DDA) and data independent acquisition (DIA). The peptides, analyzed with DDA-LC-MS/MS, were identified with the search engine Sequest, integrated in the Proteome Discoverer software version 2.0 (Thermo Fischer Scientific) using the human Uniprot protein database (EMBL; Hinxton Cambridge, UK, release December 2018). […] For the details of sample preparation and proceeding, data acquisition and analysis see the Supplementary information. […]
serum (FBS, Invitrogen) and 1% penicillin/streptomycin (Invitrogen)). […]
Cell lines were lysed in 100 mM triethylammonium bicarbonate and 1% w/v sodium deoxycholate buffer followed by probe sonication to destroy polynucleotides and heat induce protein denaturing at 99 °C for 5 min. Protein concentrations were estimated with a bicinchonic acid (BCA) protein assay (Thermo Fisher Scientific, Bremen, Germany). 20 µg of protein were reduced in presence of 10 mM dithiotreithol (Sigma Aldrich) for 30 min at 60 °C followed by cysteine alkylation with 20 mM iodo acetamide (Sigma Aldrich) for 30 min at 37 °C in the dark and enzymatic degradation with sequencing grade trypsin (Promega) over night at 37 °C. Digestion was quenched with 1% formic acid (FA), precipitated sodium deoxycholate removed by centrifugation for 5 min at 14,000 g and the supernatant was dried in a vacuum centrifuge.
LC-MS/MS in Data Dependent and Data Independent Mode
Samples were resuspended in 0.1% FA and transferred into a full recovery autosampler vial (Waters). Chromatographic separation was achieved on a nano -UPLC system (Acquity, Waters Corporation, Milford, MS, USA) with a two-buffer-system (buffer A: 0.1% FA in water, buffer B:
0.1% FA in Acetonitrile (ACN), both at pH = 3). Attached to the UPLC was a reversed -phase peptide trapping column (Symmetry C18, 180 µm × 20 mm, 100 Å pore size, 5 µm particle size) for desalting, followed by a reversed-phase capillary separation of the tryptic peptides (BEH C18; 75 µm × 200 mm, 130 Å pore size, 1.7 µm particle size), using a 60 min gradient with increasing ACN concentration from 2–30% ACN. The eluting peptides were analyzed on a quadrupole-orbitrap mass spectrometer (QExactive, Thermo Fisher Scientific, Bremen, Germany) in data dependent acquisition (DDA) and data independent acquisition (DIA) for quantification.
In DDA mode, one replicate of each cell line was randomly chosen and 1 µg per sample was used per LC-MS/MS run to build a reference spectral library used for data extraction of samples acquired in DIA mode. For DDA, the 12 most intense ions per precursor scan (1 × 10 6 ions, 70,000 Resolution, 120 ms fill time) were analyzed by MS/MS (HCD at 25 normalized collision energy, 1 × 105 ions, 17,500 Resolution, 50 ms fill time) in a range of 400–1300 m/z. A dynamic precursor exclusion of 20 s was used. For DIA, 1 µg of each sample was analyzed using a 30 sequential 20 Da fixed window method covering the mass range from 400 –1000 m/z. Per cycle, 2 precursor scans (1 × […]
28 normalized collision energy, 1 × 106 ions, 17,500 Resolution, 50 ms fill time) were performed.
After the first precursor scan, 15 MS/MS scans were performed covering the precursor mass range from 400–700 m/z followed by the second precursor scan and another 15 MS/MS scans ranging from […]
LC-MS/MS Data Processing and Analysis […]

CC1(C)OC2OC(C(O)COC3=CC(=O)c4cccc(O)c4C3=O)C(O)C2O1 (stereo not drawn) [Compound 11]
Fold change (treated / control) (PDIA6_HUMAN Q15084): 1.177 | Fold change (treated / control) (PDIP3_HUMAN Q9BY77): 0.4965 | Fold change (treated / control) (PDLI5_HUMAN Q96HC4): 1.529 | Fold change (treated / control) (PDS5A_HUMAN Q29RF7): 0.5949 | Fold change (treated / control) (PEA15_HUMAN Q15121): 1.421 | Fold change (treated / control) (PEF1_HUMAN Q9UBV8): 1.633 | Fold change (treated / control) (PESC_HUMAN O00541): 0.4845 | Fold change (treated / control) (PGAM1_HUMAN P18669): 1.273 | Fold change (treated / control) (PGK1_HUMAN P00558): 1.461 | Fold change (treated / control) (PGRC1_HUMAN O00264): 1.229 | Fold change (treated / control) (PHB_HUMAN P35232): 1.154 | Fold change (treated / control) (PIMT_HUMAN P22061): 1.252 | Fold change (treated / control) (PIN1_HUMAN Q13526): 0.8459 | Fold change (treated / control) (PLAK_HUMAN P14923): 0.7459 | Fold change (treated / control) (PLEC_HUMAN Q15149): 0.7645 | Fold change (treated / control) (PLST_HUMAN P13797): 1.7894 | Fold change (treated / control) (PMYT1_HUMAN Q99640): 0.2195 | Fold change (treated / control) (PNPH_HUMAN P00491): 1.581 | Fold change (treated / control) (PNPT1_HUMAN Q8TCS8): 0.8319 | Fold change (treated / control) (PO210_HUMAN Q8TEM1): 0.7212 | Fold change (treated / control) (PP2BA_HUMAN Q08209): 1.405 | Fold change (treated / control) (PPCE_HUMAN P48147): 1.185 | Fold change (treated / control) (PPIA_HUMAN P62937): 1.352 | Fold change (treated / control) (PPIC_HUMAN P45877): 0.8138 | Fold change (treated / control) (PPIH_HUMAN O43447): 1.279 | Fold change (treated / control) (PPIL1_HUMAN Q9Y3C6): 1.335 | Fold change (treated / control) (PR40A_HUMAN O75400): 1.476 | Fold change (treated / control) (PRDX1_HUMAN Q06830): 1.873 | Fold change (treated / control) (PRDX2_HUMAN P32119): 1.3427 | Fold change (treated / control) (PRDX3_HUMAN P30048): 1.171 | Fold change (treated / control) (PRDX5_HUMAN P30044): 1.226 | Fold change (treated / control) (PRKDC_HUMAN P78527): 0.7563 | Fold change (treated / control) (PROF1_HUMAN P07737): 1.37 | Fold change (treated / control) (PROF2_HUMAN P35080): 1.625 | Fold change (treated / control) (PRP19_HUMAN Q9UMS4): 0.7043 | Fold change (treated / control) (PRS6A_HUMAN P17980): 1.387 | Fold change (treated / control) (PRS6B_HUMAN P43686): 1.428 | Fold change (treated / control) (PRS7_HUMAN P35998): 1.348 | Fold change (treated / control) (PRS10_HUMAN P62333): 1.155 | Fold change (treated / control) (PSA1_HUMAN P25786): 1.304 | Fold change (treated / control) (PSA2_HUMAN P25787): 2.482 | Fold change (treated / control) (PSA3_HUMAN P25788): 1.56 | Fold change (treated / control) (PSA4_HUMAN P25789): 1.56 | Fold change (treated / control) (PSA6_HUMAN P60900): 1.4837 | Fold change (treated / control) (PSA7_HUMAN O14818): 1.482 | Fold change (treated / control) (PSB2_HUMAN P49721): 0.8786 | Fold change (treated / control) (PSB4_HUMAN P28070): 1.588 | Fold change (treated / control) (PSD11_HUMAN O00231): 1.222 | Fold change (treated / control) (PSDE_HUMAN O00487): 1.875 | Fold change (treated / control) (PSMD1_HUMAN Q99460): 1.296 | Fold change (treated / control) (PSMD8_HUMAN P48556): 1.59 | Fold change (treated / control) (PSPC1_HUMAN Q8WXF1): 0.7106 | Fold change (treated / control) (PTH2_HUMAN Q9Y3E5): 1.56 | Fold change (treated / control) (PUF60_HUMAN Q9UHX1): 1.257 | Fold change (treated / control) (PUR9_HUMAN P31939): 1.1359 | Fold change (treated / control) (PYC_HUMAN P11498): 0.7167 | Fold change (treated / control) (PYR1_HUMAN P27708): 0.8386 | Fold change (treated / control) (QOR_HUMAN Q08257): 1.525 | Fold change (treated / control) (RAB1A_HUMAN P62820): 1.099 | Fold change (treated / control) (RAB7A_HUMAN P51149): 1.361 | Fold change (treated / control) (RAB10_HUMAN P61026): 1.293 | Fold change (treated / control) (RAB13_HUMAN P51153): 0.5414 | Fold change (treated / control) (RAB14_HUMAN P61106): 1.096 | Fold change (treated / control) (RAB18_HUMAN Q9NP72): 1.399 | Fold change (treated / control) (RBM3_HUMAN P98179): 0.4156 | Fold change (treated / control) (RBM15_HUMAN Q96T37): 0.6754 | Fold change (treated / control) (RFC1_HUMAN P35251): 0.5451 | Fold change (treated / control) (RFC2_HUMAN P35250): 0.5826 | Fold change (treated / control) (RFC3_HUMAN P40938): 0.567 | Fold change (treated / control) (RFC4_HUMAN P35249): 0.5722 | Fold change (treated / control) (RFC5_HUMAN P40937): 0.6148 | Fold change (treated / control) (RGF1B_HUMAN Q0VAM2): 2.251 | Fold change (treated / control) (RHG01_HUMAN Q07960): 1.41 | Fold change (treated / control) (RL1D1_HUMAN O76021): 0.6228 | Fold change (treated / control) (RL4_HUMAN P36578): 0.563 | Fold change (treated / control) (RL5_HUMAN P46777): 0.7312 | Fold change (treated / control) (RL7A_HUMAN P62424): 0.6916 | Fold change (treated / control) (RL8_HUMAN P62917): 0.705 | Fold change (treated / control) (RL10A_HUMAN P62906): 0.5923 | Fold change (treated / control) (RL13_HUMAN P26373): 0.6224 | Fold change (treated / control) (RL15_HUMAN P61313): 0.6202 | Fold change (treated / control) (RL18_HUMAN Q07020): 0.4989 | Fold change (treated / control) (RL19_HUMAN P84098): 0.3072 | Fold change (treated / control) (RL21_HUMAN P46778): 0.7748 | Fold change (treated / control) (RL22_HUMAN P35268): 1.3987 | Fold change (treated / control) (RL23_HUMAN P62829): 0.6468 | Fold change (treated / control) (RL24_HUMAN P83731): 0.7258 | Fold change (treated / control) (RL27A_HUMAN P46776): 0.6191 | Fold change (treated / control) (RL29_HUMAN P47914): 0.5022 | Fold change (treated / control) (RL31_HUMAN P62899): 0.4309 | Fold change (treated / control) (RL36L_HUMAN Q969Q0): 0.4658 | Fold change (treated / control) (RLA1_HUMAN P05386): 1.316 | Fold change (treated / control) (RM16_HUMAN Q9NX20): 0.5171 | Fold change (treated / control) (RM17_HUMAN Q9NRX2): 0.5436 | Fold change (treated / control) (RM19_HUMAN P49406): 0.6745 | Fold change (treated / control) (RM37_HUMAN Q9BZE1): 0.5246 | Fold change (treated / control) (RM45_HUMAN Q9BRJ2): 0.6189 | Fold change (treated / control) (RO60_HUMAN P10155): 1.579 | Fold change (treated / control) (ROA1_HUMAN P09651): 0.6844 | Fold change (treated / control) (RPA34_HUMAN O15446): 0.6508 | Fold change (treated / control) (RPAB4_HUMAN P53803): 0.7108 | Fold change (treated / control) (RPAB5_HUMAN P62875): 0.5655
